From patent US20260216220A1, “TREATMENT OF MYELOPEROXIDASE-POSITIVE ANCA-ASSOCIATED VASCULITIS WITH H2S RELEASING COMPOUNDS” (DEBRECENI EGYETEM, priority 2022, published 2026)
For at least one compound, name, drawing or mass did not settle the structure.

Tested on: neutrophil killing of opsonized Staphylococcus aureus
Experiment: Neutrophil bacterial killing, Colony Forming Unit assay
Type: cell-based, human
Details: 100 μM, 20 minutes

S [hydrogen sulfide]
bacterial killing of neutrophil granulocytes: did not significantly affect bacterial killing
bacterial killing of neutrophil granulocytes (listed as Hydrogen sulfide): did not affect
